PubChem BioAssay AID1259425 – University of Nebraska Medical Center, 2018
In all, the deposit lists about 14,000 reagents; this is a random part of them. The numbers tell different reagents against one gene apart. Further read-outs or replicates are left out here. Reagent sequences are not shown. The record does not give: the time to read-out.

Test: 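Seek colon cancer weak points whose silencing resembles KSR1 loss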 (primary screen)
Cell system: HCT116 human colon cancer cells
Reagents: siRNA pool against human genes, 50 nM siRNA
Detection: 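After 50 nM siRNA pool, branched-DNA assay measures six marker transcripts per well, minus blank, normalised to the geometric mean of two housekeeping transcripts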
Direction: BNIP3L mRNA: higher = more BNIP3L transcript after knockdown; NDRG1 mRNA: higher = more NDRG1 transcript after knockdown

gene symbol	reagent no.	BNIP3L mRNA, set 1	NDRG1 mRNA, set 1
ZSWIM8 (GeneID 23053)	1	0.0642	0.0791
TXNDC9 (GeneID 10190)	1	0.11	0.337
PTS (GeneID 5805)	1	0.124	0.195
STX1A (GeneID 6804)	1	0.0407	0.236
RCL1 (GeneID 10171)	1	0.136	0.0782
COQ4 (GeneID 51117)	1	0.129	0.348
RFX7 (GeneID 64864)	1	0.163	0.33
CHRNA10 (GeneID 57053)	1	0.134	0.467
TBCD (GeneID 6904)	1	0.0968	0.164
VRK1 (GeneID 7443)	1	0.0689	0.0468
HSDL1 (GeneID 83693)	1	0.15	0.291
GCDH (GeneID 2639)	1	0.104	0.154
CD74 (GeneID 972)	1	0.0764	0.106
APOO (GeneID 79135)	1	0.0837	0.158
RHOBTB3 (GeneID 22836)	1	0.0739	0.141
MLYCD (GeneID 23417)	1	0.0573	0.216
KRT18 (GeneID 3875)	1	0.0931	0.142
OR1F2P (GeneID 26184)	1	0.149	0.388
FCSK (GeneID 197258)	1	0.179	0.476
RSL1D1 (GeneID 26156)	1	0.138	0.503
ELOVL6 (GeneID 79071)	1	0.112	0.103
CGB2 (GeneID 114336)	1	0.103	0.162
CSMD1 (GeneID 64478)	1	0.0732	0.313
MMP19 (GeneID 4327)	1	0.0595	0.0581
XCR1 (GeneID 2829)	1	0.0793	0.209
AARS1 (GeneID 16)	1	0.229	0.0726
MAP3K8 (GeneID 1326)	1	0.148	0.125
CYP39A1 (GeneID 51302)	1	0.125	0.386
KCNMB3 (GeneID 27094)	1	0.123	0.17
NHLH2 (GeneID 4808)	1	0.166	0.495
DHX34 (GeneID 9704)	1	0.0969	0.133

9 entries from above, set out differently.
gene symbol | reagent no. | BNIP3L mRNA, set 1 | NDRG1 mRNA, set 1
RHOBTB3 (GeneID 22836) | 1 | 0.0739 | 0.141
MLYCD (GeneID 23417) | 1 | 0.0573 | 0.216
KRT18 (GeneID 3875) | 1 | 0.0931 | 0.142
OR1F2P (GeneID 26184) | 1 | 0.149 | 0.388
FCSK (GeneID 197258) | 1 | 0.179 | 0.476
RSL1D1 (GeneID 26156) | 1 | 0.138 | 0.503
ELOVL6 (GeneID 79071) | 1 | 0.112 | 0.103
CGB2 (GeneID 114336) | 1 | 0.103 | 0.162
CSMD1 (GeneID 64478) | 1 | 0.0732 | 0.313

Additional records follow:
gene symbol	reagent no.	BNIP3L mRNA, set 1	NDRG1 mRNA, set 1
OPRL1 (GeneID 4987)	1	0.0812	0.0728
TTLL3 (GeneID 26140)	1	0.188	0.345
RNF7 (GeneID 9616)	1	0.0749	0.0682
NXPH4 (GeneID 11247)	1	0.174	0.192
CACNG3 (GeneID 10368)	1	0.119	0.133
TULP4 (GeneID 56995)	1	0.152	0.282
CFAP44 (GeneID 55779)	1	0.0985	0.2
RIMS1 (GeneID 22999)	1	0.0863	0.168
AK8 (GeneID 158067)	1	0.156	0.721
AP4M1 (GeneID 9179)	1	0.147	0.242
RBMS1 (GeneID 5937)	1	0.0973	0.175
RBMS1 (GeneID 5937)	2	0.0748	0.121
TNS1 (GeneID 7145)	1	0.168	0.0922
TNKS2 (GeneID 80351)	1	0.163	0.218
BATF3 (GeneID 55509)	1	0.124	0.106
SH2B1 (GeneID 25970)	1	0.235	0.438
LMNB1 (GeneID 4001)	1	0.109	0.0807
PCDHGA5 (GeneID 56110)	1	0.102	0.144
ENOX1 (GeneID 55068)	1	0.152	0.143
GBP2 (GeneID 2634)	1	0.0496	0.201
TUBB (GeneID 203068)	1	0.0979	0.17
ERVMER34-1 (GeneID 100288413)	1	0.144	0.416
FN3KRP (GeneID 79672)	1	0.101	0.151
CRISPLD2 (GeneID 83716)	1	0.151	0.389
CSF1R (GeneID 1436)	1	0.179	0.168
STAP1 (GeneID 26228)	1	0.0449	0.177
SLC20A2 (GeneID 6575)	1	0.161	0.0818
ZNF319 (GeneID 57567)	1	0.122	0.511
PTPRN2 (GeneID 5799)	1	0.0477	0.17
RALGAPA2 (GeneID 57186)	1	0.166	0.173
RAI14 (GeneID 26064)	1	0.236	0.231
TRMU (GeneID 55687)	1	0.0663	0.205
